Data as given in PubChem BioAssay AID1508597 (Cure First, 2020)

Screen: 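Knock-downs altering ovarian cancer cell survival with or without PARP inhibitor rucaparib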 (primary screen)
System: human ovarian carcinoma lines grown from tumours: OCI-P5x (papillary serous) and OCI-C5x (clear cell)
Reagent: siRNA pool against human genes, 1.25 pmol siRNA per well
Duration: 72 h or 96 h, depending on the cell culture
Challenge: rucaparib 20 µM (about IC30) or vehicle, present until read-out
Detection: 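ATP luminescence measured at 72 or 96 h according to the culture, then normalised and expressed as percent viability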
Scale: viability, normalised: higher = more viable cells remaining
Call rule: 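Active when normalised viability falls below 80 percent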
Calls: active = viability under 80%; inactive = viability 80% or more
In all, the deposit lists about 2,100 reagents; shown is a part drawn at random. 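Calls flag viability under 80% in either arm, not effects specific to rucaparib; the reference for percent is not stated.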 Not stated in the record: the 100% reference.

target gene | rucaparib or vehicle | cell line | technical replicate | viability, normalised (%) | activity call
MORF4L1 (mortality factor 4 like 1) | Rucaparib | OCI-C5x (clear cell) | 1 | 52.1 | active
MORF4L1 (mortality factor 4 like 1) | Rucaparib | OCI-C5x (clear cell) | 2 | 49.8 | active
MORF4L1 (mortality factor 4 like 1) | Rucaparib | OCI-C5x (clear cell) | 3 | 44.7 | active
MORF4L1 (mortality factor 4 like 1) | Rucaparib | OCI-P5x (serous) | 1 | 56.3 | active
MORF4L1 (mortality factor 4 like 1) | Rucaparib | OCI-P5x (serous) | 2 | 65.9 | active
MORF4L1 (mortality factor 4 like 1) | Rucaparib | OCI-P5x (serous) | 3 | 66.9 | active
MORF4L1 (mortality factor 4 like 1) | Vehicle | OCI-C5x (clear cell) | 1 | 60.4 | active
MORF4L1 (mortality factor 4 like 1) | Vehicle | OCI-C5x (clear cell) | 2 | 56.4 | active
MORF4L1 (mortality factor 4 like 1) | Vehicle | OCI-C5x (clear cell) | 3 | 65.7 | active
MORF4L1 (mortality factor 4 like 1) | Vehicle | OCI-P5x (serous) | 1 | 63.5 | active
MORF4L1 (mortality factor 4 like 1) | Vehicle | OCI-P5x (serous) | 2 | 68.6 | active
MORF4L1 (mortality factor 4 like 1) | Vehicle | OCI-P5x (serous) | 3 | 47.8 | active

Continued; the last 3 above are carried over.
target gene | rucaparib or vehicle | cell line | technical replicate | viability, normalised (%) | activity call
MORF4L1 (mortality factor 4 like 1) | Vehicle | OCI-P5x (serous) | 1 | 63.5 | active
MORF4L1 (mortality factor 4 like 1) | Vehicle | OCI-P5x (serous) | 2 | 68.6 | active
MORF4L1 (mortality factor 4 like 1) | Vehicle | OCI-P5x (serous) | 3 | 47.8 | active
TSPYL5 (TSPY like 5) | Rucaparib | OCI-C5x (clear cell) | 1 | 84.1 | inactive
TSPYL5 (TSPY like 5) | Rucaparib | OCI-C5x (clear cell) | 2 | 80.2 | inactive
TSPYL5 (TSPY like 5) | Rucaparib | OCI-C5x (clear cell) | 3 | 64.4 | active
TSPYL5 (TSPY like 5) | Rucaparib | OCI-P5x (serous) | 1 | 65.6 | active
TSPYL5 (TSPY like 5) | Rucaparib | OCI-P5x (serous) | 2 | 45.7 | active
TSPYL5 (TSPY like 5) | Rucaparib | OCI-P5x (serous) | 3 | 66.9 | active
TSPYL5 (TSPY like 5) | Vehicle | OCI-C5x (clear cell) | 1 | 85.2 | inactive
TSPYL5 (TSPY like 5) | Vehicle | OCI-C5x (clear cell) | 2 | 61.8 | active
TSPYL5 (TSPY like 5) | Vehicle | OCI-C5x (clear cell) | 3 | 74.5 | active
TSPYL5 (TSPY like 5) | Vehicle | OCI-P5x (serous) | 1 | 68.8 | active
TSPYL5 (TSPY like 5) | Vehicle | OCI-P5x (serous) | 2 | 90.5 | inactive
TSPYL5 (TSPY like 5) | Vehicle | OCI-P5x (serous) | 3 | 98.7 | inactive
